From publication PMC12370193, “An L-fucose-responsive transcription factor cross-regulates the expression of a diverse array of carbohydrate-active enzymes in Trichoderma reesei” (PLOS Genetics, 2025)
Construct, isoform or probe ends are uncertain for at least one entry. Negatives hold for the conditions tested. Protein sequences can lack the tags named with them.

Tested on: T1, GST-FUR1BD (Trichoderma reesei (QMP, derived from QM9414))
T1 sequence: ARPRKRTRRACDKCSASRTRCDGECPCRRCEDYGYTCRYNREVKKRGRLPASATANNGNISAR
Assay: EMSA
Settings: 0.8 ug protein, 20 fmol probe; LightShift Chemiluminescent EMSA kit binding buffer (composition, salt, pH not given), 15 C, 25 min; 6% native PAGE at 4 C; recombinant protein; protein details: N-terminal GST (pGEX-4T-1); label: biotin

Sequence | binding result
CCCCATTATACCCGTCGGCTATTTACCAG (double strand) [fdh1 upstream wild-type probe] | binds
CCCCATTATACGGCTAAACTATTTACCAG (double strand) | no binding
